Measured values as given in patent publication US20220127374A1.
These are yes or no findings as the source states them, for the method shown. Some results given as binding are weak or reduced against the parent protein; the word gives no strength.

What was measured:
[1] = molecular target: T1, human endothelial protein C receptor (hEPCR) (human) (UniProt Q9UNN8); test: flow cytometry, screening of hybridomas for anti-hEPCR IgG (DU145 cells in the validation protocol)
T1 sequence: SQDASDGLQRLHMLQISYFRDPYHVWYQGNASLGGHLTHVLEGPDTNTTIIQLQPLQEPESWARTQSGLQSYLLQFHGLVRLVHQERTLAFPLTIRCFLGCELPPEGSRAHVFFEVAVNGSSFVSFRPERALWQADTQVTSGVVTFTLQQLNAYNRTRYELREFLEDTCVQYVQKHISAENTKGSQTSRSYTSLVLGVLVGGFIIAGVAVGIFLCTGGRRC

[2] = molecular target: T1, human endothelial protein C receptor (hEPCR) (human); test: Western blot of DU145 cell lysate (30 ug per lane, reduced and boiled), primary antibody at 1 ug/mL, anti-mouse IgG-HRP
[3] = molecular target: T1, human endothelial protein C receptor (hEPCR) (human); test: ELISA on plate-coated recombinant hEPCR (0.5 ug/mL), antibody at 1 ug/mL, anti-mouse IgG-HRP, absorbance at 450 nm

Measured: binding

B1: anti-hEPCR clone H599.5 (antibody, V domains shown)
VH: QVQLQESGPGLVQPSETLSLTCTVSGGSISSYYWSWIRQPPGKGLEWIGYIYYSGSTNYNPSLKSRVTISVDTSKNQFSLKLSSVTAADTAVYYCARDQVNGWYRTGFDYWGQGTLVTVSS
VL: EIVMTQSPATLSLSPGERATLSCRASQSVSSGYLSWYQQKPGQAPRLLIYGASTRATGIPARFSGSGSGTDFTLTISSLQPEDFAAYYCQQDYNLPYTFGRGSKLEIK
binds: all assays above

B2: anti-hEPCR clone H754.6 (antibody, V domains shown)
VH: QVQLVESGGGLVTPGGSLRLSCAASGFTFSDYYMTWIRQAPGKGLEWVSYISNSGYTIYYAESVKGRFTISRDNAKSSLYLQMNSLRAEDTAVYYCARDEVSFYYGLDVWGQGTTVTVSS
VL: DIQMTQSPSSLSASAGDRVTITCRASQGIRDDLGWYQQKPGQAPKRLIYAASSLQSGVPSRFSGSGSGTEFTLTISSLQPEDFATYYCLQHNSYPYTFGQGTKLEIK
binds: all assays above

B3: anti-hEPCR clone H589.9 (antibody, V domains shown)
VH: EVQLLESGGGLVQPGGSLRLSCAASGFTFSSYAMSWVRQAPGKGLEWVSGSSGSGGSAFYADFVKGRFTISRDISKNTLFLQMNSLRAEDTAVYYCAKEGTISMAFDIWGQGTTVTVSS
VL: AIQMTQSPSSLSASVGDRVTITCRASQGIRNDLGWYQQKPGKAPKLLICAASSLQSGVPSRFSGRGSGTDFTLTISSLQPEDFATYYCLQDYNYPRTFGQGTKVEIK
binds: all assays above

B4: anti-hEPCR clone H61.3 (antibody, V domains shown)
VH: QVQLQQWGAGLLKPSETLSLTCAVYGGSFSGYYWSWIRQPPGKGLEWIGEINHSGSTNYNPSLKSRVTISVDTSKNQFSLKLSSVTAADTAVYYCARRQLIASSYAFDIWGQGTMVTVSS
VL: EIVMTQSPATLSLSPGERATLSCRASQSVTTRYLSWYQQKPGQAPRLLIYGASTRATGIPARFTGSGSGTDFTLTISSLQPEDFAVYYCQQDYNLFTFGPGTKVDIK
binds: all assays above
